Source: article PMC5701936
No constants are given. Whether binding was seen depends on the method and setting. Binding seen in cells or lysates may run through a third protein. Some entries that bind do so weakly or less than the wild type. Sequences can lack the tags named with a protein.

What was measured:
[1] = molecular target: T1, LIP5-YFPC (Arabidopsis thaliana) (UniProt Q9SZ15); assay: split reporter; BiFC with YFPN and YFPC fusions in transfected N. benthamiana leaf epidermis cells, confocal microscopy
T1 sequence: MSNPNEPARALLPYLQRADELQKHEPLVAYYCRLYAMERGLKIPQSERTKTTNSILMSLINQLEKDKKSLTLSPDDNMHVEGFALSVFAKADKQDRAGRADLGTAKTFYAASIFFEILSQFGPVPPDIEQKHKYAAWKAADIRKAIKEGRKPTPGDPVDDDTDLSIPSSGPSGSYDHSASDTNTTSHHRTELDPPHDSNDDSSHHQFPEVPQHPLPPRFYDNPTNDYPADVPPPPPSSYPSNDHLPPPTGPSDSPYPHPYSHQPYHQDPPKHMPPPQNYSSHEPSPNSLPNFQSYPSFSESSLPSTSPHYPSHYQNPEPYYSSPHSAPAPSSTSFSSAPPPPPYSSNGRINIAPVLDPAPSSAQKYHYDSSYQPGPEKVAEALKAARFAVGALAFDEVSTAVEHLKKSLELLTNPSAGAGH

TTG1-YFPC = molecular target: T2, TTG1-YFPC (UniProt Q9XGN1); assay: as above
T2 sequence: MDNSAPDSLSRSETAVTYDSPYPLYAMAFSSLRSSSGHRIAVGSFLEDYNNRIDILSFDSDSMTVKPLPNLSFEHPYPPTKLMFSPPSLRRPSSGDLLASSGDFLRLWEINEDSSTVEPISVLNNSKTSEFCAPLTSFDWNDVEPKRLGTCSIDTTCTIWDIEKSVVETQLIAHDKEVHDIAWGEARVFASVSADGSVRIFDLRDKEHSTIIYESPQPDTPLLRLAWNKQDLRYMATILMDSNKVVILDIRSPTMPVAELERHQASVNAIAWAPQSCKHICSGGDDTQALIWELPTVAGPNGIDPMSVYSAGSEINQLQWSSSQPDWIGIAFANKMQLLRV

binding [1]: no binding | binding (TTG1-YFPC): binds
B1: AtMYC1 (MYC related protein1) N-terminally fused to YFP-fragments (protein, UniProt Q8W2F1 1-526)
chain: MSLTMADGVEAAAGRSKRQNSLLRKQLALAVRSVQWSYAIFWSSSLTQPGVLEWGEGCYNGDMKKRKKSYESHYKYGLQKSKELRKLYLSMLEGDSGTTVSTTHDNLNDDDDNCHSTSMMLSPDDLSDEEWYYLVSMSYVFSPSQCLPGRASATGETIWLCNAQYAENKLFSRSLLARSASIQTVVCFPYLGGVIELGVTELISEDHNLLRNIKSCLMEISAHQDNDDEKKMEIKISEEKHQLPLGISDEDLHYKRTISTVLNYSADRSGKNDKNIRHRQPNIVTSEPGSSFLRWKQCEQQVSGFVQKKKSQNVLRKILHDVPLMHTKRMFPSQNSGLNQDDPSDRRKENEKFSVLRTMVPTVNEVDKESILNNTIKYLQELEARVEELESCMGSVNFVERQRKTTENLNDSVLIEETSGNYDDSTKIDDNSGETEQVTVFRDKTHLRVKLKETEVVIEVRCSYRDYIVADIMETLSNLHMDAFSVRSHTLNKFLTLNLKAKFRGAAVASVGMIKRELRRVIGDLF
